Read-outs that look alike come from different tables or passages of the source. Some entries share one result that the patent states for a list of compounds. Starred links: 1 amine or outer side, 2 acyl side, 3 side chain; linkers in the order of their positions; H or OH if unused. Positions of bridges follow the written chain, without caps; N, C: chain ends. Non-standard residues stand in square brackets, D forms with d. Residues, ends and D or L forms follow the SMILES beside them. ξ: configuration not given here. *: point of attachment. X5 = Cn1nc(C(=O)Nc2ccc(-c3ccc(C[C@H](N[*:1])C(=O)[*:2])cc3)cc2)c2ccccc21; Bip(4'-NH) = O=C([C@H](Cc1ccc(-c2ccc(N[*:3])cc2)cc1)N[*:1])[*:2]; Bip(4'-CONHMe) = CNC(=O)c1ccc(-c2ccc(C[C@H](N)C(=O)O)cc2)cc1; Indazole3carbonyl(1-CH2COOH) = O=C(O)Cn1nc(C(=O)*)c2ccccc21; X54 = N=C(NCCC[C@@H](N[*:1])C(=O)[*:2])NCc1cccc(-n2ccnc2)c1; Bip(4'-COOH) = N[C@@H](Cc1ccc(-c2ccc(C(=O)O)cc2)cc1)C(=O)O; X27 = N=C(NCCC[C@@H](N[*:1])C(=O)[*:2])NCCc1ccc2c(c1)OCO2; X29 = N=C(NCCC[C@@H](N[*:1])C(=O)[*:2])NCCc1ccc(F)c(F)c1; X18 = N=C(NCCC[C@@H](N[*:1])C(=O)[*:2])NCCc1ccc(O)cc1; X7 = N=C(NCCC[C@@H](N[*:1])C(=O)[*:2])NCc1ccc2occc2c1; X8 = N=C(NCCC[C@@H](N[*:1])C(=O)[*:2])NCCc1ccc(CN)cc1; X55 = N=C(NCCC[C@@H](N[*:1])C(=O)[*:2])NCCc1cccnc1; Ala(imidazol-2-yl) = N[C@@H](Cc1ncc[nH]1)C(=O)O; dArg(ω-Bn) = N=C(NCCC[C@@H](N)C(=O)O)NCc1ccccc1; Ala(morpholin-4-yl) = N[C@@H](CN1CCOCC1)C(=O)O; Bip = N[C@@H](Cc1ccc(-c2ccccc2)cc1)C(=O)O; 2Pal = N[C@@H](Cc1ccccn1)C(=O)O; Tic = O=C(O)[C@@H]1Cc2ccccc2CN1; Cha = N[C@@H](CC1CCCCC1)C(=O)O; ξP = O=C(O)C1CCCN1; Sar = CNCC(=O)O
Target: TNFα (Homo sapiens, UniProt P01375)
Assay: TNF-Induced HEK-Blue Assay
Format: cell-based
Details: read-out: IC50 values measured in the TNF induced HEK-Blue assay
[1] = summary statement for all examples

Sequences of proteins named here, by UniProt entry; tags and fusion partners are left off. Residues count along the entry.
UniProt P01375, 77-233 limits assumed: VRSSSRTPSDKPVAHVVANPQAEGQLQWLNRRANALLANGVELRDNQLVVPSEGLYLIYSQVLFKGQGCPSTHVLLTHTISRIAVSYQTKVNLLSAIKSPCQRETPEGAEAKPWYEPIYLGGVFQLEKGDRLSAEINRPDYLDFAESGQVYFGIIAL

`CNC(=O)c1ccc(-c2ccc(C[C@@H]3NC(=O)[C@H](CN4CCOCC4)NC(=O)CSC[C@@H](C(=O)NCC(N)=O)NC(=O)[C@H](CC(C)C)NC(=O)[C@H](CCCNC(=N)N)NC(=O)[C@H](C(C)C)NC(=O)[C@@H]4CCCN4C(=O)[C@H](C(C)C)NC(=O)[C@@H](CCCNC(=N)NCCc4ccc(F)c(F)c4)NC(=O)[C@H](CC(=O)O)NC(=O)[C@@H]4CCCN4C(=O)CN(C)C(=O)[C@H](Cc4ccc(-c5ccc(NC(=O)c6nn(CC(=O)O)c7ccccc67)cc5)cc4)NC3=O)cc2)cc1` [Example 424] ({CH2CO}-[Ala(morpholin-4-yl)][Bip(4'-CONHMe)][Bip(4'-NH)](Indazole3carbonyl(1-CH2COOH))[Sar]PD[X29]VPVRLCG-NH2; thioether N-13) was tested, and the IC50 [1] was at most 25 µM.
`CC(C)C[C@@H]1NC(=O)[C@H](CCCNC(=N)N)NC(=O)[C@H](C(C)C)NC(=O)[C@@H]2CCCN2C(=O)[C@H](C(C)C)NC(=O)[C@@H](CCCNC(=N)NCCc2cccnc2)NC(=O)[C@H](CC(=O)O)NC(=O)[C@@H]2CCCN2C(=O)CN(C)C(=O)[C@H](Cc2ccc(-c3ccc(NC(=O)c4nn(CC(=O)O)c5ccccc45)cc3)cc2)NC(=O)[C@H](Cc2ccc(-c3ccccc3)cc2)NC(=O)[C@H](CN2CCOCC2)NC(=O)CSC[C@@H](C(=O)NCC(N)=O)NC1=O` [Example 434] ({CH2CO}-[Ala(morpholin-4-yl)][Bip][Bip(4'-NH)](Indazole3carbonyl(1-CH2COOH))[Sar]PD[X55]VPVRLCG-NH2; thioether N-13) gave an IC50 [1] of at most 25 µM.
`CC(C)C[C@@H]1NC(=O)[C@H](CCCNC(=N)N)NC(=O)[C@H](C(C)C)NC(=O)[C@@H]2CCCN2C(=O)[C@H](C(C)C)NC(=O)[C@@H](CCCNC(=N)NCCc2ccc3c(c2)OCO3)NC(=O)[C@H](CC(=O)O)NC(=O)[C@@H]2CCCN2C(=O)CN(C)C(=O)[C@H](Cc2ccc(-c3ccc(NC(=O)c4nn(CC(=O)O)c5ccccc45)cc3)cc2)NC(=O)[C@H](Cc2ccc(-c3ccc(C(=O)O)cc3)cc2)NC(=O)[C@H](CN2CCOCC2)NC(=O)CSC[C@@H](C(=O)NCC(N)=O)NC1=O` [Example 409] ({CH2CO}-[Ala(morpholin-4-yl)][Bip(4'-COOH)][Bip(4'-NH)](Indazole3carbonyl(1-CH2COOH))[Sar]PD[X27]VPVRLCG-NH2; thioether N-13) gave an IC50 [1] of at most 25 µM.
`CC(C)C[C@@H]1NC(=O)[C@H](Cc2cnc[nH]2)NC(=O)[C@H](C(C)C)NC(=O)[C@@H]2CCCN2C(=O)[C@H](C(C)C)NC(=O)[C@@H](CCCNC(=N)NCc2ccccc2)NC(=O)[C@H](CC(=O)O)NC(=O)[C@H](Cc2ccccn2)NC(=O)CN(C)C(=O)[C@H](Cc2ccc(-c3ccc(NC(=O)c4nn(CC(=O)O)c5ccccc45)cc3)cc2)NC(=O)[C@H](Cc2ccc(-c3ccccc3)cc2)NC(=O)[C@H](CN2CCOCC2)NC(=O)CSC[C@@H](C(=O)NCC(N)=O)NC1=O` [Example 628] ({CH2CO}-[Ala(morpholin-4-yl)][Bip][Bip(4'-NH)](Indazole3carbonyl(1-CH2COOH))[Sar][2Pal]D[dArg(ω-Bn)]VPVHLCG-NH2; thioether N-13) showed an IC50 [1] of at most 25 µM.
For `CC(C)C[C@@H]1NC(=O)[C@H](Cc2ccc(O)cc2)NC(=O)[C@H](C(C)C)NC(=O)[C@@H]2CCCN2C(=O)[C@H](C(C)C)NC(=O)[C@@H](CCCNC(=N)N)NC(=O)[C@H](CC(=O)O)NC(=O)[C@@H]2CCCN2C(=O)CN(C)C(=O)[C@H](Cc2ccc(-c3ccc(NC(=O)c4nn(C)c5ccccc45)cc3)cc2)NC(=O)[C@H](Cc2ccc(-c3ccc(C(=O)O)cc3)cc2)NC(=O)[C@H](CC2CCCCC2)NC(=O)CSC[C@@H](C(=O)NCC(N)=O)NC1=O` [Example 340] ({CH2CO}-[Cha][Bip(4'-COOH)][X5][Sar]PD[dR]VPVYLCG-NH2; thioether N-13), the IC50 was at most 25 µM.
Molecule `CC(C)C[C@@H]1NC(=O)[C@H](CCCNC(=N)N)NC(=O)[C@H](C(C)C)NC(=O)[C@@H]2CCCN2C(=O)[C@H](C(C)C)NC(=O)[C@@H](CCCNC(=N)NCCc2ccc(CN)cc2)NC(=O)[C@H](CC(=O)O)NC(=O)[C@@H]2CCCN2C(=O)CN(C)C(=O)[C@H](Cc2ccc(-c3ccc(NC(=O)c4nn(CC(=O)O)c5ccccc45)cc3)cc2)NC(=O)[C@H](Cc2ccc(-c3ccccc3)cc2)NC(=O)[C@H](CN2CCOCC2)NC(=O)CSC[C@@H](C(=O)NCC(N)=O)NC1=O` [Example 429] ({CH2CO}-[Ala(morpholin-4-yl)][Bip][Bip(4'-NH)](Indazole3carbonyl(1-CH2COOH))[Sar]PD[X8]VPVRLCG-NH2; thioether N-13) has an IC50 [1] of at most 25 µM.
For `CC(C)C[C@@H]1NC(=O)[C@H](CCCNC(=N)N)NC(=O)[C@H](C(C)C)NC(=O)C2CCCN2C(=O)[C@H](C(C)C)NC(=O)[C@@H](CCCNC(=N)NCCc2ccc(O)cc2)NC(=O)[C@H](CC(=O)O)NC(=O)[C@@H]2CCCN2C(=O)CN(C)C(=O)[C@H](Cc2ccc(-c3ccc(NC(=O)c4nn(CC(=O)O)c5ccccc45)cc3)cc2)NC(=O)[C@H](Cc2ccc(-c3ccc(C(=O)O)cc3)cc2)NC(=O)[C@H](CN2CCOCC2)NC(=O)CSC[C@@H](C(=O)NCC(N)=O)NC1=O` (some centres unmarked) [Example 404] ({CH2CO}-[Ala(morpholin-4-yl)][Bip(4'-COOH)][Bip(4'-NH)](Indazole3carbonyl(1-CH2COOH))[Sar]PD[X18]V[ξP]VRLCG-NH2; thioether N-13), the IC50 [1] was at most 25 µM.
Work on `CC[C@H](C)[C@@H]1NC(=O)[C@@H](CCCNC(=N)N)NC(=O)[C@H](CC(=O)O)NC(=O)[C@H](Cc2cnc[nH]2)NC(=O)CN(C)C(=O)[C@H](Cc2ccc(-c3ccc(NC(=O)c4nn(C)c5ccccc45)cc3)cc2)NC(=O)[C@H](Cc2ccc(-c3ccc(C(=O)O)cc3)cc2)NC(=O)[C@H](CC2CCCCC2)NC(=O)CSC[C@@H](C(=O)NCC(N)=O)NC(=O)[C@H](CC(C)C)NC(=O)[C@H](Cc2cnc[nH]2)NC(=O)[C@H](C(C)C)NC(=O)[C@@H]2Cc3ccccc3CN2C1=O` [Example 336] ({CH2CO}-[Cha][Bip(4'-COOH)][X5][Sar]HD[dR]I[Tic]VHLCG-NH2; thioether N-13) yielded an IC50 of at most 25 µM.
Molecule `CC(C)C[C@@H]1NC(=O)[C@H](Cc2ccccn2)NC(=O)[C@H](C(C)C)NC(=O)[C@@H]2CCCN2C(=O)[C@H](C(C)C)NC(=O)[C@@H](CCCNC(=N)N)NC(=O)[C@H](CC(=O)O)NC(=O)[C@H](Cc2ccc(O)cc2)NC(=O)CN(C)C(=O)[C@H](Cc2ccc(-c3ccc(NC(=O)c4nn(C)c5ccccc45)cc3)cc2)NC(=O)[C@H](Cc2ccc(-c3ccc(C(=O)O)cc3)cc2)NC(=O)[C@H](CC2CCCCC2)NC(=O)CSC[C@@H](C(=O)NCC(N)=O)NC1=O` [Example 339] ({CH2CO}-[Cha][Bip(4'-COOH)][X5][Sar]YD[dR]VPV[2Pal]LCG-NH2; thioether N-13) has an IC50 of at most 25 µM.
`CC(C)C[C@@H]1NC(=O)[C@H](CCCNC(=N)N)NC(=O)[C@H](C(C)C)NC(=O)[C@@H]2CCCN2C(=O)[C@H](C(C)C)NC(=O)[C@@H](CCCNC(=N)NCc2ccc3occc3c2)NC(=O)[C@H](CC(=O)O)NC(=O)[C@@H]2CCCN2C(=O)CN(C)C(=O)[C@H](Cc2ccc(-c3ccc(NC(=O)c4nn(CC(=O)O)c5ccccc45)cc3)cc2)NC(=O)[C@H](Cc2ccc(-c3ccccc3)cc2)NC(=O)[C@H](CN2CCOCC2)NC(=O)CSC[C@@H](C(=O)NCC(N)=O)NC1=O` [Example 449] ({CH2CO}-[Ala(morpholin-4-yl)][Bip][Bip(4'-NH)](Indazole3carbonyl(1-CH2COOH))[Sar]PD[X7]VPVRLCG-NH2; thioether N-13) gave an IC50 [1] of at most 25 µM.
In the case of `CC(C)C[C@@H]1NC(=O)[C@H](CCCNC(=N)N)NC(=O)[C@H](C(C)C)NC(=O)[C@@H]2CCCN2C(=O)[C@H](C(C)C)NC(=O)[C@@H](CCCNC(=N)NCc2cccc(-n3ccnc3)c2)NC(=O)[C@H](CC(=O)O)NC(=O)[C@@H]2CCCN2C(=O)CN(C)C(=O)[C@H](Cc2ccc(-c3ccc(NC(=O)c4nn(C)c5ccccc45)cc3)cc2)NC(=O)[C@H](Cc2ccc(-c3ccccc3)cc2)NC(=O)[C@H](CN2CCOCC2)NC(=O)CSC[C@@H](C(=O)NCC(N)=O)NC1=O` [Example 474] ({CH2CO}-[Ala(morpholin-4-yl)][Bip][X5][Sar]PD[X54]VPVRLCG-NH2; thioether N-13), the IC50 is reported as at most 25 µM.
In the case of `CC[C@H](C)[C@@H]1NC(=O)[C@@H](CCCNC(=N)N)NC(=O)[C@H](CC(=O)O)NC(=O)[C@H](Cc2cnc[nH]2)NC(=O)CN(C)C(=O)[C@H](Cc2ccc(-c3ccc(NC(=O)c4nn(CC(=O)O)c5ccccc45)cc3)cc2)NC(=O)[C@H](Cc2ccc(-c3ccccc3)cc2)NC(=O)[C@H](CC2CCCCC2)NC(=O)CSC[C@@H](C(=O)NCC(N)=O)NC(=O)[C@H](CC(C)C)NC(=O)[C@H](Cc2cnc[nH]2)NC(=O)[C@H](C(C)C)NC(=O)[C@@H]2CCCN2C1=O` [Example 364] ({CH2CO}-[Cha][Bip][Bip(4'-NH)](Indazole3carbonyl(1-CH2COOH))[Sar]HD[dR]IPVHLCG-NH2; thioether N-13), the IC50 [1] is reported as at most 25 µM.
With `CC[C@H](C)[C@@H]1NC(=O)[C@@H]2CCCN2C(=O)[C@H]([C@@H](C)CC)NC(=O)[C@@H](CCCNC(=N)N)NC(=O)[C@H](CC(=O)O)NC(=O)[C@H](Cc2ccccc2)NC(=O)CN(C)C(=O)[C@H](Cc2ccc(-c3ccc(NC(=O)c4nn(C)c5ccccc45)cc3)cc2)NC(=O)[C@H](Cc2ccc(-c3ccccc3)cc2)NC(=O)[C@H](CC2CCCCC2)NC(=O)CSC[C@@H](C(=O)NCC(N)=O)NC(=O)[C@H](CC(C)C)NC(=O)[C@H](Cc2ncc[nH]2)NC1=O` [Example 402] ({CH2CO}-[Cha][Bip][X5][Sar]FD[dR]IPI[Ala(imidazol-2-yl)]LCG-NH2; thioether N-13) the IC50 was at most 25 µM.
Work on `CC(C)C[C@@H]1NC(=O)[C@H](Cc2ccc(O)cc2)NC(=O)[C@H](C(C)C)NC(=O)[C@@H]2CCCN2C(=O)[C@H](C(C)C)NC(=O)[C@@H](CCCNC(=N)NCc2ccccc2)NC(=O)[C@H](CC(=O)O)NC(=O)[C@@H]2CCCN2C(=O)CN(C)C(=O)[C@H](Cc2ccc(-c3ccc(NC(=O)c4nn(CC(=O)O)c5ccccc45)cc3)cc2)NC(=O)[C@H](Cc2ccc(-c3ccc(C(=O)O)cc3)cc2)NC(=O)[C@H](CC2CCCCC2)NC(=O)CSC[C@@H](C(=O)NCC(N)=O)NC1=O` [Example 579] ({CH2CO}-[Cha][Bip(4'-COOH)][Bip(4'-NH)](Indazole3carbonyl(1-CH2COOH))[Sar]PD[dArg(ω-Bn)]VPVYLCG-NH2; thioether N-13) yielded an IC50 [1] of at most 25 µM.

Reference: patent publication US20250145665A1, “MACROCYCLIC PEPTIDES USEFUL AS MODULATORS OF TNF ALPHA” (Bristol-Myers Squibb Company, priority 2023, published 2025)
